The supplement of paper PMC10849652
This is one part of the list.

By UniProt entry, the sequences of proteins in these tests, tags left out. Where a name states a change or a piece, a line headed by the entry shows the natural chain unless it says otherwise.
UniProt Q92997: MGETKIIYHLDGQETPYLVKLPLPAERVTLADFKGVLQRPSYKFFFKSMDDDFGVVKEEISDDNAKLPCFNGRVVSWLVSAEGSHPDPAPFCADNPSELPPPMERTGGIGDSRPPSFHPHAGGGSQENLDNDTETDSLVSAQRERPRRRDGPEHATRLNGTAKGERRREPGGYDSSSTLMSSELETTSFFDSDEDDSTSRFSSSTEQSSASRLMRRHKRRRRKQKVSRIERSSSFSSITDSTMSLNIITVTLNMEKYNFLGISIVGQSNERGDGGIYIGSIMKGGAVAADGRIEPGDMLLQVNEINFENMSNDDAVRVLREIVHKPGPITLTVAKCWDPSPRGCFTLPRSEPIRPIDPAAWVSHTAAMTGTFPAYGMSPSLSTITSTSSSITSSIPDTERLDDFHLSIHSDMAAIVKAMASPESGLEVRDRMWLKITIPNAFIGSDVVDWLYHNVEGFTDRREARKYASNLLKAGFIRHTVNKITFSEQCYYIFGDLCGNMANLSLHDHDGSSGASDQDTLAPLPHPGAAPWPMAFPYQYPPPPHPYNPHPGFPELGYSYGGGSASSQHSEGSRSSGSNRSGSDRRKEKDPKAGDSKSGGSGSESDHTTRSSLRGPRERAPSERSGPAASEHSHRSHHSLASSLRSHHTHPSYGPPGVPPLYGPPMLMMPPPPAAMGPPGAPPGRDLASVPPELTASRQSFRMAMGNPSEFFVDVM
UniProt Q7L8W6: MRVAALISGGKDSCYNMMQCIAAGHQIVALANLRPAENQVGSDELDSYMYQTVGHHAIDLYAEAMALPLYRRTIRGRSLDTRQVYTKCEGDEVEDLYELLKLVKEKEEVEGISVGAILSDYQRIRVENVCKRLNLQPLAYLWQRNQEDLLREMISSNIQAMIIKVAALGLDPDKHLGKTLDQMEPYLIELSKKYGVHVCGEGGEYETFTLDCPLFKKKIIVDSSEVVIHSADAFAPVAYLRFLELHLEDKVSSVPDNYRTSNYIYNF
UniProt Q7Z2Z2: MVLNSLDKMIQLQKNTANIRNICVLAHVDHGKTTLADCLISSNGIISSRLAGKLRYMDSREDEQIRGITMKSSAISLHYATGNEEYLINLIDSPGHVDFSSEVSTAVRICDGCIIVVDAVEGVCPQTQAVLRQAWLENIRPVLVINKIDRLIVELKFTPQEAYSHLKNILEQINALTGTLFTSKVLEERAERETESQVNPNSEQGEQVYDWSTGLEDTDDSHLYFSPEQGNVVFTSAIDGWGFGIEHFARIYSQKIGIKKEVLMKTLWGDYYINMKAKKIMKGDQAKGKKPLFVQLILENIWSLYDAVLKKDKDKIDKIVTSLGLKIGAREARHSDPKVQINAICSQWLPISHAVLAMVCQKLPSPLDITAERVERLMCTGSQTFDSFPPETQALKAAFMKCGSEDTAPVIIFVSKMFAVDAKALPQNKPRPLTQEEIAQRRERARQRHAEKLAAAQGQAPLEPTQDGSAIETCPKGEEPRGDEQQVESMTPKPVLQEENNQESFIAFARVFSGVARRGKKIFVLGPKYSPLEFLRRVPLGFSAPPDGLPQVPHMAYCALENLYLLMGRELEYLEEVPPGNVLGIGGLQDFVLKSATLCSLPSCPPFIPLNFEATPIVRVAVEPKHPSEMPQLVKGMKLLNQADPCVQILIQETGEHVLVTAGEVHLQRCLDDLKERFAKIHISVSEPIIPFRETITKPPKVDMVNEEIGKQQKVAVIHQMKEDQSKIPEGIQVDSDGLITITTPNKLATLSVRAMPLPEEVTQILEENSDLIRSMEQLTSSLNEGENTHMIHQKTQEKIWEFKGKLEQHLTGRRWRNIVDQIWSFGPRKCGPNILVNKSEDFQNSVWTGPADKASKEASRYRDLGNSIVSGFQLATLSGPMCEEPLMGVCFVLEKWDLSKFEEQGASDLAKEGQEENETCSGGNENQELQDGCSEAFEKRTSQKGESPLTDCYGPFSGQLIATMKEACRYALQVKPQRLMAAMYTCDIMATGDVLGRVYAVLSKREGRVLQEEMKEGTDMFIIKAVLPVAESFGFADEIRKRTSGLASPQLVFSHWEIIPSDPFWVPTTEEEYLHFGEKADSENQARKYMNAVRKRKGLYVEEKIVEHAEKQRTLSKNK
UniProt Q9H8V3: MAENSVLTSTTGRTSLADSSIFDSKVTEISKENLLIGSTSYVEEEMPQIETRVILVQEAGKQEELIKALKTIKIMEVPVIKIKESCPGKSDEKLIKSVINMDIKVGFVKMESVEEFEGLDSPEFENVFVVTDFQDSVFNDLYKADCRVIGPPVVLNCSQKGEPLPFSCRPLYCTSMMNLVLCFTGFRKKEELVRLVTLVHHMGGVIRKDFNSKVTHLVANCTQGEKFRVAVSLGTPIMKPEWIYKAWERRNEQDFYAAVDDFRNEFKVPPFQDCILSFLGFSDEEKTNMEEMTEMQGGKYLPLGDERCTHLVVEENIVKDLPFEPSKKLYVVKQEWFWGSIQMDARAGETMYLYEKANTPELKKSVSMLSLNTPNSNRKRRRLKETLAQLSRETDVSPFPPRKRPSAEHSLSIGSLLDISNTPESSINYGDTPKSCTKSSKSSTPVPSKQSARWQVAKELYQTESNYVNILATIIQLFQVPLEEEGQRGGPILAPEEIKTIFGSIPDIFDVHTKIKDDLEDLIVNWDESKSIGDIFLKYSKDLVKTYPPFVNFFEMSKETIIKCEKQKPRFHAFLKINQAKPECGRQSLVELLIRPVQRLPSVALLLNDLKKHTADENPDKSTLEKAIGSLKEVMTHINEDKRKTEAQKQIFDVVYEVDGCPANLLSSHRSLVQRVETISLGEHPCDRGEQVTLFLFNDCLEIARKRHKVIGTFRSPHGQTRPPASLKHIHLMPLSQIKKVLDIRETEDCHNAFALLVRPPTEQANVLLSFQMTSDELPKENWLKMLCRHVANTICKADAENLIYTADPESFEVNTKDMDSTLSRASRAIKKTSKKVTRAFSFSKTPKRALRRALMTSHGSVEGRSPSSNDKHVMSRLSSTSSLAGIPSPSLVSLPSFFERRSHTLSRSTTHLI
UniProt O00716: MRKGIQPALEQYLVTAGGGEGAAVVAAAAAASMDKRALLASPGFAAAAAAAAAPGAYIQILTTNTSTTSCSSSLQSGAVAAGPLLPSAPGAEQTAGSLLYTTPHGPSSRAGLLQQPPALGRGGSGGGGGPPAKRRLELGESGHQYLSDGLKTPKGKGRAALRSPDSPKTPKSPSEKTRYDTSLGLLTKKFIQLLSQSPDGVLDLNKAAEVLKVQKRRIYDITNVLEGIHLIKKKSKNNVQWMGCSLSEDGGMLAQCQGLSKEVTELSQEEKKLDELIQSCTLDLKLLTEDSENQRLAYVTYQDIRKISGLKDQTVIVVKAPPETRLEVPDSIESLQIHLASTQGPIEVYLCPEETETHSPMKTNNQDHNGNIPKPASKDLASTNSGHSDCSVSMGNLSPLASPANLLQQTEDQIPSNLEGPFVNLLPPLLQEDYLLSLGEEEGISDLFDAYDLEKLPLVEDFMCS
UniProt Q01658: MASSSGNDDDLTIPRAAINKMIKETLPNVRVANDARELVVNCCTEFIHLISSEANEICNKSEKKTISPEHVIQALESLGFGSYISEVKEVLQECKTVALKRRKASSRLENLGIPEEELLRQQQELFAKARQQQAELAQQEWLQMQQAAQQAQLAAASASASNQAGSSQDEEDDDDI
UniProt Q9BQC3: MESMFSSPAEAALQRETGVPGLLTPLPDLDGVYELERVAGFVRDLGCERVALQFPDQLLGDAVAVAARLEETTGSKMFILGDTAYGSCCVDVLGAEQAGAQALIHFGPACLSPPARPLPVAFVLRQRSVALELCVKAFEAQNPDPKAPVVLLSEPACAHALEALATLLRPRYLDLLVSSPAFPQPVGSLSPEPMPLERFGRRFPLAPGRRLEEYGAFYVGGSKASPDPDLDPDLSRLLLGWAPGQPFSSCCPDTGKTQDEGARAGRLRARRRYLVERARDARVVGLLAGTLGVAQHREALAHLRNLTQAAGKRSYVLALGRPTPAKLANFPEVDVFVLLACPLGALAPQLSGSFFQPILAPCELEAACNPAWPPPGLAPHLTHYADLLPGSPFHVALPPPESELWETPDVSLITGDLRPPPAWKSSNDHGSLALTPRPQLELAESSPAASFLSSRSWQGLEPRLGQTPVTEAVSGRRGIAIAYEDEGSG
UniProt Q15075: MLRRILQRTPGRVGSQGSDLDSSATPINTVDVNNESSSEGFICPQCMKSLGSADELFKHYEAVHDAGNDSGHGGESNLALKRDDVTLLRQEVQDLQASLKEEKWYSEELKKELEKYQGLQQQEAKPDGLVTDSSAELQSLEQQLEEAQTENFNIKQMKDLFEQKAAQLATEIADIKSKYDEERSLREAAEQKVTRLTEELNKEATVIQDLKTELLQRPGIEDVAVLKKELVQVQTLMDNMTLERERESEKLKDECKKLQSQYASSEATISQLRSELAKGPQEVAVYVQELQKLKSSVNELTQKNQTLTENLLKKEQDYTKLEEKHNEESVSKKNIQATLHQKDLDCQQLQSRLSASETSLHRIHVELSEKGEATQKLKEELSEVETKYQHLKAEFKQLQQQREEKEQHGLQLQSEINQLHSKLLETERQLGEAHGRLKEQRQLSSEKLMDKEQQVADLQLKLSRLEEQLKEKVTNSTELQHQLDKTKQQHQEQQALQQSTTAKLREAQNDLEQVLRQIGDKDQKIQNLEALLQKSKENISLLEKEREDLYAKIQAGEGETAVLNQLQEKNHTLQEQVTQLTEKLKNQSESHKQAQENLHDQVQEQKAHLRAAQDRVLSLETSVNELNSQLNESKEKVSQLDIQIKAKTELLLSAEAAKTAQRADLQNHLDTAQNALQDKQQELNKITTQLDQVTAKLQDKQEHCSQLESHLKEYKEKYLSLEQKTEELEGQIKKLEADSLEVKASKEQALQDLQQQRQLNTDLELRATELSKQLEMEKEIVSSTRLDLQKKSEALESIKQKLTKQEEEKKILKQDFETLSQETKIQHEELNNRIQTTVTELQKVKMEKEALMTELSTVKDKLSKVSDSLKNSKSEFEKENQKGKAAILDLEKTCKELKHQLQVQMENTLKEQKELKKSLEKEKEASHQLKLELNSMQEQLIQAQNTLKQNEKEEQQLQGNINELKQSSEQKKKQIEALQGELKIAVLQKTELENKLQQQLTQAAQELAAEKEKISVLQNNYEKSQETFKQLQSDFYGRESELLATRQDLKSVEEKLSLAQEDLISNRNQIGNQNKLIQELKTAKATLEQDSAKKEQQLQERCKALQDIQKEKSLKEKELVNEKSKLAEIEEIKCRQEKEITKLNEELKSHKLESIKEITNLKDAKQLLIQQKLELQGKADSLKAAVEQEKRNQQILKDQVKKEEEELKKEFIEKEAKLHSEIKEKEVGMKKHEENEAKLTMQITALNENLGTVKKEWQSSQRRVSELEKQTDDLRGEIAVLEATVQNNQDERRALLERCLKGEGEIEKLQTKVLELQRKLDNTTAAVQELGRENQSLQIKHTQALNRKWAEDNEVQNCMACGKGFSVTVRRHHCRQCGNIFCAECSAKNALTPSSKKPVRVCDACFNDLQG
UniProt Q9BVC3, whole entry, looked up: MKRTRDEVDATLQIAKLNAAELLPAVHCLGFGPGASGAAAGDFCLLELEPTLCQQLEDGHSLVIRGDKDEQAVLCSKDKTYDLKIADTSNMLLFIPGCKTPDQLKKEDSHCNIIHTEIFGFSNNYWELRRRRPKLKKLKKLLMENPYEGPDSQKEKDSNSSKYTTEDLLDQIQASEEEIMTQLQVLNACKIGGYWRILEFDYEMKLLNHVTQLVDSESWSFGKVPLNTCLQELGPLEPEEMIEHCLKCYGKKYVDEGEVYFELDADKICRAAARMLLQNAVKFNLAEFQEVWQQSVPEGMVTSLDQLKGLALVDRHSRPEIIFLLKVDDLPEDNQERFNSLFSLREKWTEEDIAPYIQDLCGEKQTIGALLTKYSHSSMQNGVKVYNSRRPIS
UniProt Q13409, whole entry, looked up: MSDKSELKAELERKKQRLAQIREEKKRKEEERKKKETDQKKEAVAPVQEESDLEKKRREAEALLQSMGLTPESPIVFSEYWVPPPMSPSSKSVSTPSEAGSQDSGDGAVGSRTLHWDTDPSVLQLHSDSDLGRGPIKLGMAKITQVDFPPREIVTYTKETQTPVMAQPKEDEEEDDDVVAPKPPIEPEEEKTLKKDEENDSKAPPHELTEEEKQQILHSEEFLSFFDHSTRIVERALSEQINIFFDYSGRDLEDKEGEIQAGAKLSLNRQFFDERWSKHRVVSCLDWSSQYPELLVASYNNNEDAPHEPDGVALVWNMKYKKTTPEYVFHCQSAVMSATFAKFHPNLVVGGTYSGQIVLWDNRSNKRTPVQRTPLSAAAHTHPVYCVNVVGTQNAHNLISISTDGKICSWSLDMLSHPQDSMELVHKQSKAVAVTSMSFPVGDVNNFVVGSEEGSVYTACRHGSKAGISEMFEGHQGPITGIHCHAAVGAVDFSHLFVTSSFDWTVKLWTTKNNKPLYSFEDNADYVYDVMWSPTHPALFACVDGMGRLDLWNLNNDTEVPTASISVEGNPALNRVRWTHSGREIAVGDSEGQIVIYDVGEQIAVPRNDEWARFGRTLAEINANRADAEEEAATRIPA

Each target was assayed with C1COCCN1CCN2C3=CC=CC=C3N=C2NC(=O)C4=CC(=CC=C4)[N+](=O)[O-] [IRAK-1-4 Inhibitor I] (assay: log2 fold change, soluble protein after heating vs DMSO (PISA); higher = thermal stabilisation; K562 lysate, 10 uM; active = over 0.2 and 3.5 SD of the protein, either way, in both replicates (recomputed)).
In short: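 K562 pellets were dounce-homogenised in PBS pH 7.4 containing 1 mM MgCl2, and the crude extract, at 1 mg/mL protein, was exposed to 10 μM compound for 30 min. Aliquots were heated for 3 min across 48°C-58°C, pooled, brought to 0.5% NP-40 at 4°C and spun at 21,000xg for 90 min, with the supernatant taken as soluble protein. TMTpro 16plex LC-MS/MS with equalised channel sums quantified that protein. Values are log-two fold changes in thermal stability relative to solvent controls, taken from duplicates.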

log2 fold change, inactive:
DVL3 (UniProt Q92997) -0.018
EEF1AKNMT (UniProt Q8N6R0) -0.015
DUS4L (UniProt O95620) -0.018
DPH6 (UniProt Q7L8W6) 0.026
EFL1 (UniProt Q7Z2Z2) 0.015
EARS2 (UniProt Q5JPH6) 0.002
ECT2 (UniProt Q9H8V3) -0.049
DSG2 (UniProt Q14126) -0.037
DRAP1 isoform 2 (UniProt Q14919) 0.016
DYNC1LI1 (UniProt Q9Y6G9) -0.006
EHD2 (UniProt Q9NZN4) 0.01
E2F3 (UniProt O00716) 0.022
DR1 (UniProt Q01658) 0.027
DYNC1H1 (UniProt Q14204) -0.003
DUS3L (UniProt Q96G46) 0.017
DPH2 (UniProt Q9BQC3) -0.005
DYNC1LI2 (UniProt O43237) 0.037
EEA1 (UniProt Q15075) -0.015
DSCC1 (UniProt Q9BVC3) 0.013
ECI1 (UniProt P42126) -0.018
E2F4 (UniProt Q16254) 0.008
DYNLL1 (UniProt P63167) 0.017
DYNC1I2 isoform 2 (UniProt Q13409) 0.01

A portion from further up:
log2 fold change, inactive:
DYNLL1 (UniProt P63167) 0.017
DYNC1I2 isoform 2 (UniProt Q13409) 0.01
